Measured values taken from the supplement of paper PMC4635364.
Structures can show the parent of a compound that is named as a salt. This is one part of the list. Repeats in this data set agree poorly, so a single value says little.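 ReNCell VM, a human fetal ventral-midbrain neural progenitor line, was differentiated without mitogens. Blinded raters scored images stained for doublecortin (early neurons) or tyrosine hydroxylase (dopaminergic neurons) against untreated wells (0 = no change). Scores were averaged across repeats and both raters, and compounds averaging 2 or more were selected as hits for retesting.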

What follows are molecules tested on ReNCell VM (assay: dopaminergic neuron differentiation score (TH+ cell fraction vs untreated, manual image score) (score (0 to 3)); higher = more TH+ dopaminergic neuron differentiation). Settings: library: Spectrum; 2 uM; 4 weeks; BDNF 10 ng/ml + GDNF 10 ng/ml.

Row | SMILES | dopaminergic neuron differentiation score
1 | CC(=O)CC(c1ccccc1)c1c(O)c2ccccc2oc1=O (stereo not given) | inactive: 0
2 | CN1C(=O)OC(C)(C)C1=O | inactive: 0
3 | CCCCCCCCCCCCCc1ccco1 | inactive: 0
4 | CC(=O)N1CCN(c2ccc(OCC3COC(Cn4ccnc4)(c4ccc(Cl)cc4Cl)O3)cc2)CC1 (stereo not given) | inactive: 0
5 | CC1=C(C)C(=O)C(C(CCCCCC(=O)O)c2ccccc2)=C(C)C1=O (stereo not given) | inactive: 0
6 | CCCCCCCCCCCCCCCCC(C(=O)O)C(O)(CC(=O)O)C(=O)O (stereo not given) | inactive: 0
7 | NC(=O)c1ccc[n+]([C@@H]2O[C@H](COP(=O)([O-])OP(=O)(O)OC[C@H]3O[C@@H](n4cnc5c(N)ncnc54)[C@H](O)[C@@H]3O)[C@@H](O)[C@H]2O)c1 | inactive: 0
8 | CC(=O)N[C@@H]([C@@H](O)[C@H](O)[C@H](O)CO)[C@@H](O)CC(=O)C(=O)O | inactive: 0
9 | Nc1c2ccccc2nc2ccccc12 | inactive: 0
10 | C[C@H](CCC(=O)O)[C@H]1CC[C@H]2[C@@H]3[C@H](O)C[C@@H]4C[C@H](O)CC[C@]4(C)[C@H]3C[C@H](O)[C@]12C | inactive: 0
11 | Cc1cc(NS(=O)(=O)c2ccc(N)cc2)no1 | inactive: 0
12 | CCCCC1C(=O)N(c2ccccc2)N(c2ccccc2)C1=O | inactive: 0
13 | C[C@]12CC[C@@H]3c4ccc(O)cc4CC[C@H]3[C@@H]1C[C@H](O)[C@@H]2O | inactive: 0
14 | C[C@H]1COC2=C1C(=O)C(=O)c1c2ccc2c1CCCC2(C)C | inactive: 0
15 | NC(=O)N[C@@H](CCC(=O)O)C(=O)O | inactive: 0
16 | CN1CCN(c2c(F)cc3c(=O)c(C(=O)O)cn4c3c2SCC4)CC1 | inactive: 0
17 | CCCCCCCCCCCCCCCC(=O)O[C@@H]1[C@@H](O)[C@@H](O)[C@@H]([C@H](NC(=O)[C@@H]2C[C@@H](CCC)CN2C)[C@H](C)Cl)O[C@@H]1SC | inactive: 0
18 | CC(C)(O)CC[C@@H](O)[C@](C)(O)[C@H]1CC[C@@]2(O)C3=CC(=O)[C@@H]4C[C@@H](O)[C@@H](O)C[C@]4(C)[C@H]3CC[C@]12C | inactive: 0
19 | C=C1C2CC[C@@]3(C)[C@H](c4ccoc4)OC(=O)C[C@]13O[C@H]1CC(O)C(C)(C)C(CC(=O)OC)[C@@]21C (stereo partly drawn) [3alpha-HYDROXY-3-DEOXYANGOLENSIC ACID METHYL ESTER] | inactive: 0

Same assay, conditions: library: Tocriscreen; 2 uM; 4 weeks; BDNF 10 ng/ml + GDNF 10 ng/ml

Row | SMILES | dopaminergic neuron differentiation score
20 | CCCc1c(OCC(O)COc2ccc3c(=O)cc(C(=O)O)oc3c2CCC)ccc(C(C)=O)c1O (stereo not given) | inactive: 0
21 | Cc1ccc(NC(=O)C(C)C)cc1C1CCN(Cc2ccc(Oc3ccc(F)c(F)c3)cc2)CC1 | inactive: 0
22 | CC(=N)NCCCC[C@H](N)C(=O)O [L-NIL hydrochloride] | inactive: 0
23 | OCCNCCCOc1cccc(Cl)c1Cl [2,3-DCPE hydrochloride] | inactive: 0
24 | O=C(c1ccc(Nc2nccc(-c3cc4ccccc4s3)n2)cc1)N1CCC(N2CCCC2)CC1 | inactive: 0
25 | CNC(=O)[C@@H](Cc1ccccc1)N(C)C(=O)[C@@H](Cc1ccc2ccccc2c1)N(C)C(=O)/C=C/CC(C)(C)N [Tabimorelin] | inactive: 0

2 entries picked at random from those above:
Row | SMILES | dopaminergic neuron differentiation score
25 | CNC(=O)[C@@H](Cc1ccccc1)N(C)C(=O)[C@@H](Cc1ccc2ccccc2c1)N(C)C(=O)/C=C/CC(C)(C)N [Tabimorelin] | inactive: 0
20 | CCCc1c(OCC(O)COc2ccc3c(=O)cc(C(=O)O)oc3c2CCC)ccc(C(C)=O)c1O (stereo not given) | inactive: 0
